Experiment [1] addresses T1, P_FULL-BirA*Flag of BoDV-1 (C-terminal BirA* tagged full-length phosphoprotein) (Borna disease virus 1 (BoDV-1)) (UniProt P0C798).
T1 sequence: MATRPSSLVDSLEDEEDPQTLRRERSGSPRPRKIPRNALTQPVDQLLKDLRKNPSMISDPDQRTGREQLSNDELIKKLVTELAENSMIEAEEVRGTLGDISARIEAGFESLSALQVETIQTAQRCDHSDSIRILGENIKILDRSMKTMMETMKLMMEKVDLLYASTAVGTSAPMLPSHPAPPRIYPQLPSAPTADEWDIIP
Nature of the experiment: proximity labelling.

The chains behind the UniProt entries cited, without tags or fusion partners.
UniProt O60826: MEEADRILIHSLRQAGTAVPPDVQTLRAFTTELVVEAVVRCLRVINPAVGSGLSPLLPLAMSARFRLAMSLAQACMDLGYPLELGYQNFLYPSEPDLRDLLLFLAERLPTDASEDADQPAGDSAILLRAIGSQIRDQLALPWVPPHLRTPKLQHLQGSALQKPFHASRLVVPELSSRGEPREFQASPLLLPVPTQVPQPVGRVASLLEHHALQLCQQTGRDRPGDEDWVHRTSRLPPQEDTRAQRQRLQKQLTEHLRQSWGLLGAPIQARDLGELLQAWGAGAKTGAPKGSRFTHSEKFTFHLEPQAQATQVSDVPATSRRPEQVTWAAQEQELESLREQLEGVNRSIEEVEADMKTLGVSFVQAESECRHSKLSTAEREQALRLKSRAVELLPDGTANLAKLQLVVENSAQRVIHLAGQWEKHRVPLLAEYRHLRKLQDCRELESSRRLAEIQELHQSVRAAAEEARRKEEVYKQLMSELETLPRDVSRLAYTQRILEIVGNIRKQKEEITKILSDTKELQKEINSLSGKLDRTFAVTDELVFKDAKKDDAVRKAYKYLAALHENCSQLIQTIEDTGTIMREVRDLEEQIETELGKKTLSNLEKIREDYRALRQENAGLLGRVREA
UniProt Q13561: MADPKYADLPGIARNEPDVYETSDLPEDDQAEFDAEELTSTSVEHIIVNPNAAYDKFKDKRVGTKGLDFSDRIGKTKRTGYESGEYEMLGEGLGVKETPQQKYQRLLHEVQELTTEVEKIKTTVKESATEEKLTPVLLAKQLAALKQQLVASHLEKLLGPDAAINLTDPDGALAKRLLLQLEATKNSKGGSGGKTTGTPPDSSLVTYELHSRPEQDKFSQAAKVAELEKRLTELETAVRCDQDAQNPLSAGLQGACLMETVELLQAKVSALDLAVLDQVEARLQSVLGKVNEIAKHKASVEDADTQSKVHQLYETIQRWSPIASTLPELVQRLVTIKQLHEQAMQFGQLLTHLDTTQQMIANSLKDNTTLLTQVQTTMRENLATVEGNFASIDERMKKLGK
UniProt Q9UJW0: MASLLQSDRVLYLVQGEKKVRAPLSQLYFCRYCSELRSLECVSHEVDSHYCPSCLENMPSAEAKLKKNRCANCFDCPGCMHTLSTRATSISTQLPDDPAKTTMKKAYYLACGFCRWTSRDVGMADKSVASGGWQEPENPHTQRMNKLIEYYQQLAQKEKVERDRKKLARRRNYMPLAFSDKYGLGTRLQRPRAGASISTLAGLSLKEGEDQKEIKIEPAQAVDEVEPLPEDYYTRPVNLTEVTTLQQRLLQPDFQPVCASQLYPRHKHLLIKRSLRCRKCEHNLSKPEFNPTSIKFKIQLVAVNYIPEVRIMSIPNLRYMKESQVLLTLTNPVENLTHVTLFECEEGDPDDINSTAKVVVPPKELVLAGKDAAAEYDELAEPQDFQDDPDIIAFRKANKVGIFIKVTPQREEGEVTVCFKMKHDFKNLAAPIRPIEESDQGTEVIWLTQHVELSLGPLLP
UniProt P09429: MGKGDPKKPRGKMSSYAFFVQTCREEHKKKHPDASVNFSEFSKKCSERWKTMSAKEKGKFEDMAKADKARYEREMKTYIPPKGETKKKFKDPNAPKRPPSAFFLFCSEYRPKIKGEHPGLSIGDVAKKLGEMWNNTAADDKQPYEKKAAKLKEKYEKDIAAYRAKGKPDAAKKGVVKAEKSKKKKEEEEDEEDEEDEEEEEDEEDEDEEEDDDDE

For experiment [2], the target named is T2, FlagBirA*-P_FULL of BoDV-1 (N-terminal BirA* tagged full-length phosphoprotein) (Borna disease virus 1 (BoDV-1)) (UniProt P0C798).
T2 sequence: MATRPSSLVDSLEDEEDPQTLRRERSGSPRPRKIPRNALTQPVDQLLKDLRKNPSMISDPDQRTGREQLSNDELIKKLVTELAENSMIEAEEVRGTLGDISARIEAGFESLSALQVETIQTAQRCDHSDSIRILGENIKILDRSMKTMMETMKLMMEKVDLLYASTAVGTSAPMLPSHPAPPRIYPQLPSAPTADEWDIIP
Nature of the experiment: proximity labelling.

These are yes or no findings as the source states them, for the method shown. In cells and extracts the contact can be indirect. Here binding means that the protein was enriched with, or labelled near, the bait; the list need not be complete. Tags and fused reporters may be left off the sequences shown.

Take CCDC22 (from UniProt O60826 1-627): the binding entry in experiment [1] is on record as “binds”. Consider DCTN2 (from UniProt Q13561 1-401), for which the binding result in experiment [2] was “binds”. With DCTN4 (from UniProt Q9UJW0 1-460), the binding result in experiment [2] is “binds”.

As to HMGB1 (from UniProt P09429 1-215), the binding result in experiment [2] is reported as “binds”.

B1: HMGB2 (protein, UniProt P26583 1-209)
chain: MGKGDPNKPRGKMSSYAFFVQTCREEHKKKHPDSSVNFAEFSKKCSERWKTMSAKEKSKFEDMAKSDKARYDREMKNYVPPKGDKKGKKKDPNAPKRPPSAFFLFCSEHRPKIKSEHPGLSIGDTAKKLGEMWSEQSAKDKQPYEQKAAKLKEKYEKDIAAYRAKGKSEAGKKGPGRPTGSKKKNEPEDEEEEEEEEDEDEEEEDEDEE
For the molecule B1, the binding result in experiment [2] is listed as “binds”.

The values are drawn from article PMC9692295.
